Data from the supplement of paper PMC10849652.
The list shows a part of the results.

Amino acid sequences for entries named in this document (tags omitted). A change or cut given only in a name is not applied to a line headed by its entry.
UniProt Q6NUT2: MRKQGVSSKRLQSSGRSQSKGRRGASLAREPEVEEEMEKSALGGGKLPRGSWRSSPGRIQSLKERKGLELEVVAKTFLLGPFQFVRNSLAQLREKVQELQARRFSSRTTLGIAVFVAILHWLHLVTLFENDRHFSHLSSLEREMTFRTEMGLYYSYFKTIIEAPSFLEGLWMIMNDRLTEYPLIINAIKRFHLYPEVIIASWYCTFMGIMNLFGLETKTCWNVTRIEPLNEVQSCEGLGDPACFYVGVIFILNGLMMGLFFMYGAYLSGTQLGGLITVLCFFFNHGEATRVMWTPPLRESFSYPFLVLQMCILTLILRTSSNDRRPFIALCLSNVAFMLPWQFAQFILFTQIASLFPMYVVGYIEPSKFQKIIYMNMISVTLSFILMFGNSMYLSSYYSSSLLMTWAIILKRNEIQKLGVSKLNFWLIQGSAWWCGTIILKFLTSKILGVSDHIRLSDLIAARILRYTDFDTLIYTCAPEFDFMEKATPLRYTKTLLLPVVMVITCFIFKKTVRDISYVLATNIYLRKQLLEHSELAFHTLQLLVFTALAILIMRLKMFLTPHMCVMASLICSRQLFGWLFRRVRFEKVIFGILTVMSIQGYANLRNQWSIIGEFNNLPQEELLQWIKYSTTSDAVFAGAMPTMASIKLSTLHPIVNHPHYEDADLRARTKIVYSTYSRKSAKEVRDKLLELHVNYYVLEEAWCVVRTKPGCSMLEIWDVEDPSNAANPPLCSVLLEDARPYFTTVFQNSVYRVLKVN
UniProt Q6P1R4: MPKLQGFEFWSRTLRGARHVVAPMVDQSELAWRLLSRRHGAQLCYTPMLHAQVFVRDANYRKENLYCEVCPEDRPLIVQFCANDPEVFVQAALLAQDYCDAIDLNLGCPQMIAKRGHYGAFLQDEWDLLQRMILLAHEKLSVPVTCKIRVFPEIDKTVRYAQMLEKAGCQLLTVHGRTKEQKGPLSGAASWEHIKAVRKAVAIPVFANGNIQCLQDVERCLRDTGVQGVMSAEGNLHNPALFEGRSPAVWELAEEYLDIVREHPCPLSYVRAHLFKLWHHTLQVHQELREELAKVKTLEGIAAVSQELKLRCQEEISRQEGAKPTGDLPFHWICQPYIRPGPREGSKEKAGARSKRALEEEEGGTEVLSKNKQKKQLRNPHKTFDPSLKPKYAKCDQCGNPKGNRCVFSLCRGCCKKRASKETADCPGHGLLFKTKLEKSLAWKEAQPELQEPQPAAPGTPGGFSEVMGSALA
UniProt Q9Y5T4: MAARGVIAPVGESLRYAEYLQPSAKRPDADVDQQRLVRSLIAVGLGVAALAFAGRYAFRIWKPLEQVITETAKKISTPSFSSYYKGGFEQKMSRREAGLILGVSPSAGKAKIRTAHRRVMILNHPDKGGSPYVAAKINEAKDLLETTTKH
UniProt Q96LL9: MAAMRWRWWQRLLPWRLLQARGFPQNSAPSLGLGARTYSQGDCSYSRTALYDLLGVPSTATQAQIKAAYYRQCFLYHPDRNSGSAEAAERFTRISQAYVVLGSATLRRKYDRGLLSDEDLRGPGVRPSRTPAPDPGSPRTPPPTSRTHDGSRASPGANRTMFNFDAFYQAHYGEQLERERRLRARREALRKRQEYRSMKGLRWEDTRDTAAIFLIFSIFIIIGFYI
UniProt Q6XUX3: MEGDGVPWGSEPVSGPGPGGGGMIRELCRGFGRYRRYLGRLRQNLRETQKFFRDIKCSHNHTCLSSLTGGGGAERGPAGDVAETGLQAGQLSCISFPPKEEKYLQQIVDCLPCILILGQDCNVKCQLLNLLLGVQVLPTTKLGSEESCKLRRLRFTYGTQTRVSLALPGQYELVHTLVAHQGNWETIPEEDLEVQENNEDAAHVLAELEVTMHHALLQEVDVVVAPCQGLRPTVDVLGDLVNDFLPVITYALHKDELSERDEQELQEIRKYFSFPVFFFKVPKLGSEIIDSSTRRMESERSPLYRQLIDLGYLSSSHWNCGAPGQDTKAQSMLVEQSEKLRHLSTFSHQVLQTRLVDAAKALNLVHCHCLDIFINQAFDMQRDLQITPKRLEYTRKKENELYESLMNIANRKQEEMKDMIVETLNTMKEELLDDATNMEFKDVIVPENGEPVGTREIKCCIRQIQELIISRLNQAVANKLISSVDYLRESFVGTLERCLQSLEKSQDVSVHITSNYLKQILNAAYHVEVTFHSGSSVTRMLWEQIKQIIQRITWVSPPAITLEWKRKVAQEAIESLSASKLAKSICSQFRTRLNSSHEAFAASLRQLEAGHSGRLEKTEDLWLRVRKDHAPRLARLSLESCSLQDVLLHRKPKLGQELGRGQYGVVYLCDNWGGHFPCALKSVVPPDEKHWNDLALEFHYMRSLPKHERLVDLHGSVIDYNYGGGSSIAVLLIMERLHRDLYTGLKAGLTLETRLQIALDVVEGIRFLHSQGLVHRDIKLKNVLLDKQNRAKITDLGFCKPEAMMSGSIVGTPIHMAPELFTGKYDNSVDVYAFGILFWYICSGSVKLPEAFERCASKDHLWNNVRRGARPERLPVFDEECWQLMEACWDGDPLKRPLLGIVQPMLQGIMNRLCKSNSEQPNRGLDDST
UniProt Q92608: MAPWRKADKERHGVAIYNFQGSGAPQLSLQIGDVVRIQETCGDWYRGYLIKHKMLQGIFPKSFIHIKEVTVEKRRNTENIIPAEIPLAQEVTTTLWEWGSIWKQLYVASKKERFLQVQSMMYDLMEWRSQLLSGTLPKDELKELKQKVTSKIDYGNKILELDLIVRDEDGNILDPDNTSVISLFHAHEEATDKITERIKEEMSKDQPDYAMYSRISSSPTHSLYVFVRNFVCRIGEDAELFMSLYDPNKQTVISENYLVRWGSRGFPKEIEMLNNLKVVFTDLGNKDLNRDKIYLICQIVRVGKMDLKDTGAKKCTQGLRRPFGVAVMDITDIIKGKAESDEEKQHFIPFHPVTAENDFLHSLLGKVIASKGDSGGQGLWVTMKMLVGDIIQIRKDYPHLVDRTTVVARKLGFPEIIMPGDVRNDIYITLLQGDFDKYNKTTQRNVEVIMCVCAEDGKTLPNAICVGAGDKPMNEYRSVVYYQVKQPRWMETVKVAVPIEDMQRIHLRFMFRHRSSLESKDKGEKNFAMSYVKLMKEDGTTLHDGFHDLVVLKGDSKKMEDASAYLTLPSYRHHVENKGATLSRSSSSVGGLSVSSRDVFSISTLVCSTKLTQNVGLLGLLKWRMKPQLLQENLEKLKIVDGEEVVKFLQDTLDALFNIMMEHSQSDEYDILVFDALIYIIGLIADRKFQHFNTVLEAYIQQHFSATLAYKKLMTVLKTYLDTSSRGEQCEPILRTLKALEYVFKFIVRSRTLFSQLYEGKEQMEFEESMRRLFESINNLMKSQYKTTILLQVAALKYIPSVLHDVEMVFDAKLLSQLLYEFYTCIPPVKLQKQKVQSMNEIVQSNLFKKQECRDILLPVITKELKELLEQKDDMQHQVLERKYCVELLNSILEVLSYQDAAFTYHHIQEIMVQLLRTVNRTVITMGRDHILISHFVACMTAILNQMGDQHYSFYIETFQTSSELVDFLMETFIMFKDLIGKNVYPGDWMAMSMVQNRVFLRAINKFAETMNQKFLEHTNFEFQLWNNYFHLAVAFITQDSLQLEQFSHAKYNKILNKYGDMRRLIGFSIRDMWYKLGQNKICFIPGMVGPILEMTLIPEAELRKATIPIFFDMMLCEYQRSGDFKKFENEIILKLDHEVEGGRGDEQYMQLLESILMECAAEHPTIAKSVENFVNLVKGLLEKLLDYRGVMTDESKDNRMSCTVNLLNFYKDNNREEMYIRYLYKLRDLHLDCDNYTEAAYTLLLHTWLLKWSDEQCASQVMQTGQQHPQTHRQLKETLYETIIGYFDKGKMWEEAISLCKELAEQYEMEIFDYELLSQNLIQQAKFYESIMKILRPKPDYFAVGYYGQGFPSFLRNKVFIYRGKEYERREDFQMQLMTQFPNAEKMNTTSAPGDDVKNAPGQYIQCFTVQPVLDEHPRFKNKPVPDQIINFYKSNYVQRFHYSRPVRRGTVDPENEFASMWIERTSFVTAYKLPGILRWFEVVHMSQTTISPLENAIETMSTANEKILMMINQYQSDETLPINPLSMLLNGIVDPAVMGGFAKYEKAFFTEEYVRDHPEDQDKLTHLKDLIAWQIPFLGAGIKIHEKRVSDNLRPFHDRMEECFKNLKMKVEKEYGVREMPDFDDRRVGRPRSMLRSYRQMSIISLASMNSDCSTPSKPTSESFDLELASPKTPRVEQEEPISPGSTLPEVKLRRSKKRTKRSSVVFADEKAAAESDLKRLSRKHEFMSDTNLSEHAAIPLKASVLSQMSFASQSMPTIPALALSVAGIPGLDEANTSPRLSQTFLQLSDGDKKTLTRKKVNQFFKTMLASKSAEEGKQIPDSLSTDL
UniProt Q96BY6: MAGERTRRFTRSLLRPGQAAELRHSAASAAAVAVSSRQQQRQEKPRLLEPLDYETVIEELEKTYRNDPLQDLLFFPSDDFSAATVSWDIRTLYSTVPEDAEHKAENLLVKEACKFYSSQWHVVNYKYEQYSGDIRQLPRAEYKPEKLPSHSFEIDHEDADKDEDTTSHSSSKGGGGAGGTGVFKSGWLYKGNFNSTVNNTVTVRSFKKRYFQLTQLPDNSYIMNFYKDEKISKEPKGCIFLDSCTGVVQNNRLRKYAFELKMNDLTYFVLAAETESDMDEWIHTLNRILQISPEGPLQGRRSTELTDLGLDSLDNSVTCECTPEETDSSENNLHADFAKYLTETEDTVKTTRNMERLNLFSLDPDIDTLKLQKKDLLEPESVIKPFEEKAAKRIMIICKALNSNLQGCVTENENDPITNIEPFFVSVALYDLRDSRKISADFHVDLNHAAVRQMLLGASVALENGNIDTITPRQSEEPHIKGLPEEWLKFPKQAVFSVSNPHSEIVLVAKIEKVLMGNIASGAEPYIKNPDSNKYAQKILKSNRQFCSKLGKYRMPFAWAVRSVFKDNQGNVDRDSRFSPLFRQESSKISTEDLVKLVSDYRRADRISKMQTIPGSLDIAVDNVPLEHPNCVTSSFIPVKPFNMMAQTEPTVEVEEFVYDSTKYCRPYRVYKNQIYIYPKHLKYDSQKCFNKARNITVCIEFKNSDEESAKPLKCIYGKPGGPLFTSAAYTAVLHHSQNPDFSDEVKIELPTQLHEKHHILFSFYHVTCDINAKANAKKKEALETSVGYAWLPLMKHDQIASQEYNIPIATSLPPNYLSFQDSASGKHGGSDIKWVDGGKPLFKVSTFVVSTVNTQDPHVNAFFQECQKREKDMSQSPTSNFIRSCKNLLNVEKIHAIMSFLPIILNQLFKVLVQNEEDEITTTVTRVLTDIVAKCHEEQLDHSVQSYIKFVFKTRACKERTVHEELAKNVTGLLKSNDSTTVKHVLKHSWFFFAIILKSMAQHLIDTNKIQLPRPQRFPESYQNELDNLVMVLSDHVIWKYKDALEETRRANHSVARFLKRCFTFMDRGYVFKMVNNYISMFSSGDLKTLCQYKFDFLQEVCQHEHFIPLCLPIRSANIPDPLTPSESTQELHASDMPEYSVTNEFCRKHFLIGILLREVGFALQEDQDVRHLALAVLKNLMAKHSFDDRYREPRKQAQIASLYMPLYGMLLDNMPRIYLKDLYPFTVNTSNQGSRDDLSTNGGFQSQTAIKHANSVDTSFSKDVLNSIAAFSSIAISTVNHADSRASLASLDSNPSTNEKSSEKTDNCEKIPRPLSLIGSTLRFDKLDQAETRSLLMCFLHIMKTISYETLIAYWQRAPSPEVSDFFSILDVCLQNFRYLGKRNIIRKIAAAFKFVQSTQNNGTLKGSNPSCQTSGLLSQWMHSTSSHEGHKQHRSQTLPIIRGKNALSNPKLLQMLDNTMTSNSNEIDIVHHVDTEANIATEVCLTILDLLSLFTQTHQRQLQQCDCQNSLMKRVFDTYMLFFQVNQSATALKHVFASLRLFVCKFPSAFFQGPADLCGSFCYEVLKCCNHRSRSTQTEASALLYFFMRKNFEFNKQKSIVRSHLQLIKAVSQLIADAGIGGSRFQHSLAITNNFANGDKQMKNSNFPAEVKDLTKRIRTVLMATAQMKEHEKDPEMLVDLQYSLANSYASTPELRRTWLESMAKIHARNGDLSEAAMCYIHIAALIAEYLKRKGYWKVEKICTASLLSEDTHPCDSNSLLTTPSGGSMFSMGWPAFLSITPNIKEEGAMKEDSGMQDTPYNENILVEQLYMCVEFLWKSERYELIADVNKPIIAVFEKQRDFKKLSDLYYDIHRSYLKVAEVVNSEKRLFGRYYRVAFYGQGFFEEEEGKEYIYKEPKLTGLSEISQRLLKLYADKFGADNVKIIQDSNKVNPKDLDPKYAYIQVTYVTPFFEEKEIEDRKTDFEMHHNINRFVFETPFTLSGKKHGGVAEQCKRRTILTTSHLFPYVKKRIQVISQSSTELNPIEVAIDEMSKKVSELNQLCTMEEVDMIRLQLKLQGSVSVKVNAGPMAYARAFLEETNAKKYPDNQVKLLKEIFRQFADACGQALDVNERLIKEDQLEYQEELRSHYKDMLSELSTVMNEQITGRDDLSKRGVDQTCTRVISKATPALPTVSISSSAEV

Experiments:
Experiment in all cases: log2 fold change, soluble protein after heating vs DMSO (PISA); higher = thermal stabilisation; K562 cells, 10 uM, 30 min; active = over 0.2 and 3.5 SD of the protein, either way, in both replicates (recomputed)
crizotinib = compound: C[C@@H](Oc1cc(-c2cnn(C3CCNCC3)c2)cnc1N)c1c(Cl)ccc(F)c1Cl [crizotinib]
Summary of the method: (§1)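 For each measurement, 10 μM compound was applied for 30 min to K562 cells at 2×10^6 cells/mL. Aliquots were heated for 3 min across 48°C-58°C, pooled, and extracted in PBS with 0.5% NP-40 at 4°C; the supernatant after 21,000xg for 90 min was soluble protein. This was quantified by TMTpro 16plex LC-MS/MS with channel sums equalised, and thermal stability was reported relative to control samples from duplicates, on a log2 fold-change scale.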

tozasertib = compound: Cc1cc(Nc2cc(N3CCN(C)CC3)nc(Sc3ccc(NC(=O)C4CC4)cc3)n2)n[nH]1 [tozasertib]
Summary of the method: as §1

doramapimod = compound: Cc1ccc(-n2nc(C(C)(C)C)cc2NC(=O)Nc2ccc(OCCN3CCOCC3)c3ccccc23)cc1 [doramapimod]
Summary of the method: as §1

bafetinib = compound: Cc1ccc(NC(=O)c2ccc(CN3CC[C@H](N(C)C)C3)c(C(F)(F)F)c2)cc1Nc1nccc(-c2cncnc2)n1 [bafetinib]
Summary of the method: as §1

tipifarnib = compound: Cn1cncc1[C@@](N)(c1ccc(Cl)cc1)c1ccc2c(c1)c(-c1cccc(Cl)c1)cc(=O)n2C [tipifarnib]
Summary of the method: as §1

duvelisib = compound: C[C@H](Nc1ncnc2nc[nH]c12)c1cc2cccc(Cl)c2c(=O)n1-c1ccccc1 [duvelisib]
Summary of the method: as §1

gandotinib = compound: Cc1cc(Nc2cc(CN3CCOCC3)c3nc(C)c(Cc4ccc(Cl)cc4F)n3n2)n[nH]1 [gandotinib]
Summary of the method: as §1

[1] = compound: Cc1cc(SCc2sc(-c3ccc(C(F)(F)F)cc3)nc2C)ccc1OCC(=O)O
Summary of the method: as §1

[2] = compound: Cc1cccc(CC(=O)N2CCc3c2ccc(-c2cn(C)c4ncnc(N)c24)c3F)n1
Summary of the method: as §1

nilotinib = compound: Cc1cn(-c2cc(NC(=O)c3ccc(C)c(Nc4nccc(-c5cccnc5)n4)c3)cc(C(F)(F)F)c2)cn1 [nilotinib]
Summary of the method: as §1

[3] = compound: Cc1nc(Nc2n[nH]c3c2CN(C(=O)N[C@H](CN(C)C)c2ccccc2)C3(C)C)c2sccc2n1
Summary of the method: as §1

dasatinib = compound: Cc1nc(Nc2ncc(C(=O)Nc3c(C)cccc3Cl)s2)cc(N2CCN(CCO)CC2)n1 [dasatinib]
Summary of the method: as §1

[4] = compound: Cc1ncc(-c2ccnc(Nc3ccc(S(C)(=O)=O)cc3)n2)n1C(C)C
Summary of the method: as §1

mubritinib = compound: FC(F)(F)c1ccc(/C=C/c2nc(COc3ccc(CCCCn4ccnn4)cc3)co2)cc1 [mubritinib]
Summary of the method: as §1

[5] = compound: C[C@H](C1=CC=C(C=C1)C(=O)NC2=C3C=CNC3=NC=C2)N
Summary of the method: as §1

ispinesib = compound: Cc1ccc(C(=O)N(CCCN)[C@@H](c2nc3cc(Cl)ccc3c(=O)n2Cc2ccccc2)C(C)C)cc1 [ispinesib]
Summary of the method: as §1

[6] = compound: Cn1cc(-c2ccc3c(c2)CCN3C(=O)Cc2cccc(C(F)(F)F)c2)c2c(N)ncnc21
Summary of the method: as §1

[7] = compound: Cn1cc(-c2ccc3nnc(C(F)(F)c4ccc5ncccc5c4)n3n2)cn1
Summary of the method: as §1

[8] = compound: CS(=O)(=O)c1ccc(-c2cnc(N)c(C(=O)Nc3ccccc3)n2)cc1
Summary of the method: as §1

[9] = compound: C[C@@H]1COCCN1C2=NC(=NC(=C2)C3(CC3)S(=O)(=O)C)C4=C5C=CNC5=CC=C4
Summary of the method: as §1

Measured: log2 fold change

DNAJC25 (UniProt Q9H1X3)
inactive: crizotinib -0.214 | tozasertib -0.064 | doramapimod -0.089 | bafetinib -0.107 | tipifarnib -0.026

DNAJB14 (UniProt H7C494)
inactive: crizotinib 0.079 | duvelisib 0.099 | gandotinib -0.109 | [1] -0.032 | doramapimod 0.001 | [2] -0.076 | nilotinib -0.001 | [3] 0.04 | dasatinib -0.18 | [4] 0.052 | tipifarnib 0.14 | mubritinib 0.154

DNPH1 (UniProt H0Y8X4)
inactive: [5] -0.053 | duvelisib -0.007 | tozasertib -0.009 | [1] 0.174 | ispinesib -0.001 | nilotinib 0.127 | [3] 0.264 | dasatinib 0.14 | [4] -0.105 | [6] 0.014 | [7] -0.349 | tipifarnib 0.177 | mubritinib 0.203

DOLK (UniProt Q9UPQ8)
inactive: [8] -0.062 | [9] -0.214 | [5] -0.104 | bafetinib -0.099 | nilotinib -0.016 | [3] -0.059 | [4] -0.082 | [6] -0.242

DPY19L2 (UniProt Q6NUT2)
inactive: crizotinib 0.104 | gandotinib -0.082 | tozasertib 0.09 | doramapimod -0.04 | bafetinib 0.021 | [2] 0.002 | nilotinib 0.057 | [3] -0.153 | [4] 0.05 | mubritinib -0.097

DUS1L (UniProt Q6P1R4)
inactive: [5] 0.224 | gandotinib 0.001 | tozasertib 0.085 | ispinesib -0.097 | [2] 0 | [6] -0.095 | [7] -0.077 | mubritinib -0.223

DNAJC15 (UniProt Q9Y5T4)
inactive: [8] 0.041 | tipifarnib 0.385

DNAJC30 (UniProt Q96LL9)
inactive: crizotinib 0 | doramapimod -0.043

DNAJB9 (UniProt Q9UBS3)
inactive: gandotinib 0.196 | [2] -0.213

DSTYK (UniProt Q6XUX3)
inactive: [9] 0.216 | [5] 0.018 | duvelisib -0.056 | gandotinib -0.108 | tozasertib -0.05 | [1] -0.048 | bafetinib 0.12 | [2] 0.058 | nilotinib 0.018 | [3] 0.111 | dasatinib -0.14 | [4] -0.086 | [6] 0.138

DPCD (UniProt Q9BVM2)
inactive: crizotinib -0.173 | gandotinib 0.02 | doramapimod -0.183 | [2] 0.06

DOCK2 (UniProt Q92608)
inactive: ispinesib -0.332 | [7] 0.046

DOCK10 (UniProt Q96BY6)
inactive: crizotinib 0.049 | tozasertib -0.104 | doramapimod 0.011 | ispinesib 0.008 | nilotinib -0.336 | [3] 0.016 | [4] -0.15 | [7] 0 | mubritinib 0.114

E4F1 (UniProt H3BN24)
inactive: ispinesib 0.035 | [7] -0.104
